Results: ChEMBL document CHEMBL4316593 (Eur J Med Chem, 2019)
Further values from the same series stand in other lists.

Tests used:
Type in all cases: cell-based
Conditions in all cases: U-87MG ATCC
[1] = Inhibition of RTK/PI3K/AKT/mTOR signaling in human U87 cells assessed as down regulation of IGHMBP2 gene expression at cytotoxic IC50 measured after 48 hrs relative to control
[2] = Inhibition of RTK/PI3K/AKT/mTOR signaling in human U87 cells assessed as up regulation of YEATS domain containing 2 gene expression at cytotoxic IC50 measured after 48 hrs relative to control
[3] = Inhibition of RTK/PI3K/AKT/mTOR signaling in human U87 cells assessed as down regulation of NFKBIE gene expression at cytotoxic IC50 measured after 48 hrs relative to control
[4] = Inhibition of RTK/PI3K/AKT/mTOR signaling in human U87 cells assessed as down regulation of COL12A1 gene expression at cytotoxic IC50 measured after 48 hrs relative to control
[5] = Inhibition of RTK/PI3K/AKT/mTOR signaling in human U87 cells assessed as down regulation of TMEM106C gene expression at cytotoxic IC50 measured after 48 hrs relative to control
[6] = Inhibition of RTK/PI3K/AKT/mTOR signaling in human U87 cells assessed as up regulation of C14orf132 gene expression at cytotoxic IC50 measured after 48 hrs relative to control
[7] = Inhibition of RTK/PI3K/AKT/mTOR signaling in human U87 cells assessed as down regulation of CSGALNACT2 gene expression at cytotoxic IC50 measured after 48 hrs relative to control
[8] = Inhibition of RTK/PI3K/AKT/mTOR signaling in human U87 cells assessed as down regulation of KCTD5 gene expression at cytotoxic IC50 measured after 48 hrs relative to control
[9] = Inhibition of RTK/PI3K/AKT/mTOR signaling in human U87 cells assessed as down regulation of RDH10 gene expression at cytotoxic IC50 measured after 48 hrs relative to control
[10] = Inhibition of RTK/PI3K/AKT/mTOR signaling in human U87 cells assessed as up regulation of sterol regulatory element binding transcription factor 2 gene expression at cytotoxic IC50 measured after 48 hrs relative to control
[11] = Inhibition of RTK/PI3K/AKT/mTOR signaling in human U87 cells assessed as up regulation of transducin beta like 1X-linked gene expression at cytotoxic IC50 measured after 48 hrs relative to control
[12] = Inhibition of RTK/PI3K/AKT/mTOR signaling in human U87 cells assessed as up regulation of FKBP14 gene expression at cytotoxic IC50 measured after 48 hrs relative to control
[13] = Inhibition of RTK/PI3K/AKT/mTOR signaling in human U87 cells assessed as down regulation of SRXN1 gene expression at cytotoxic IC50 measured after 48 hrs relative to control
[14] = Inhibition of RTK/PI3K/AKT/mTOR signaling in human U87 cells assessed as up regulation of ribosomal protein L22 gene expression at cytotoxic IC50 measured after 48 hrs relative to control
[15] = Inhibition of RTK/PI3K/AKT/mTOR signaling in human U87 cells assessed as up regulation of phosphofructokinase, liver type gene expression at cytotoxic IC50 measured after 48 hrs relative to control
[16] = Inhibition of RTK/PI3K/AKT/mTOR signaling in human U87 cells assessed as down regulation of DHX16 gene expression at cytotoxic IC50 measured after 48 hrs relative to control
[17] = Inhibition of RTK/PI3K/AKT/mTOR signaling in human U87 cells assessed as up regulation of KRT7 gene expression at cytotoxic IC50 measured after 48 hrs relative to control
[18] = Inhibition of RTK/PI3K/AKT/mTOR signaling in human U87 cells assessed as up regulation of TMEM92 gene expression at cytotoxic IC50 measured after 48 hrs relative to control
[19] = Inhibition of RTK/PI3K/AKT/mTOR signaling in human U87 cells assessed as down regulation of SBSN gene expression at cytotoxic IC50 measured after 48 hrs relative to control
[20] = Inhibition of RTK/PI3K/AKT/mTOR signaling in human U87 cells assessed as down regulation of BRAP gene expression at cytotoxic IC50 measured after 48 hrs relative to control
[21] = Inhibition of RTK/PI3K/AKT/mTOR signaling in human U87 cells assessed as down regulation of DCAF5 gene expression at cytotoxic IC50 measured after 48 hrs relative to control
[22] = Inhibition of RTK/PI3K/AKT/mTOR signaling in human U87 cells assessed as down regulation of ARFGAP2 gene expression at cytotoxic IC50 measured after 48 hrs relative to control
[23] = Inhibition of RTK/PI3K/AKT/mTOR signaling in human U87 cells assessed as down regulation of TRIM35 gene expression at cytotoxic IC50 measured after 48 hrs relative to control
[24] = Inhibition of RTK/PI3K/AKT/mTOR signaling in human U87 cells assessed as down regulation of PPP4R2 gene expression at cytotoxic IC50 measured after 48 hrs relative to control
[25] = Inhibition of RTK/PI3K/AKT/mTOR signaling in human U87 cells assessed as down regulation of ABHD2 gene expression at cytotoxic IC50 measured after 48 hrs relative to control
[26] = Inhibition of RTK/PI3K/AKT/mTOR signaling in human U87 cells assessed as down regulation of GAS6 gene expression at cytotoxic IC50 measured after 48 hrs relative to control
[27] = Inhibition of RTK/PI3K/AKT/mTOR signaling in human U87 cells assessed as down regulation of RHEB gene expression at cytotoxic IC50 measured after 48 hrs relative to control
[28] = Inhibition of RTK/PI3K/AKT/mTOR signaling in human U87 cells assessed as down regulation of ARPC5L gene expression at cytotoxic IC50 measured after 48 hrs relative to control
[29] = Inhibition of RTK/PI3K/AKT/mTOR signaling in human U87 cells assessed as down regulation of EPHX1 gene expression at cytotoxic IC50 measured after 48 hrs relative to control
[30] = Inhibition of RTK/PI3K/AKT/mTOR signaling in human U87 cells assessed as down regulation of TUBB3 gene expression at cytotoxic IC50 measured after 48 hrs relative to control
[31] = Inhibition of RTK/PI3K/AKT/mTOR signaling in human U87 cells assessed as down regulation of TRIM23 gene expression at cytotoxic IC50 measured after 48 hrs relative to control
[32] = Inhibition of RTK/PI3K/AKT/mTOR signaling in human U87 cells assessed as down regulation of RBM10 gene expression at cytotoxic IC50 measured after 48 hrs relative to control

CC(=O)C(=NNc1ccccc1C#N)C(C)=O
log2FC [1]: -0.854
log2FC [2]: 0.768
log2FC [3]: -1.07
log2FC [4]: -1.63
log2FC [5]: -0.795
log2FC [6]: 1.73
log2FC [7]: -0.612
log2FC [8]: -0.755
log2FC [9]: -1.15
log2FC [10]: 0.972
log2FC [11]: 0.986
log2FC [12]: 1.68
log2FC [13]: -2.92
log2FC [14]: 0.939
log2FC [15]: 0.717
log2FC [16]: -0.641
log2FC [17]: 2.99
log2FC [18]: 2.24
log2FC [19]: -3.32
log2FC [20]: -0.911
log2FC [21]: -0.5
log2FC [22]: -0.75
log2FC [23]: -0.798
log2FC [24]: -0.597
log2FC [25]: -0.937
log2FC [26]: -0.943
log2FC [27]: -0.768
log2FC [28]: -0.6
log2FC [29]: -0.638
log2FC [30]: -2.98
log2FC [31]: -1.18
log2FC [32]: -0.828
